18 compounds from the supplement of paper PMC6418307 can be followed below.

The subject of this assay is primary mouse cortical neurons. The assay is described as follows: cell health score (luciferase spike-in reads / total reads per well) (fraction); higher = fewer cellular reads, worse cell health / toxicity. As to conditions: treatment time 24 h.
The mark [1] stands for this setting: 0.01 µM, sex of neuron culture: Female.
Setting [2] is: 0.01 µM, sex of neuron culture: Male.
Where [3] appears, read: 0.1 µM, sex of neuron culture: Female.
[4] abbreviates: 0.1 µM, sex of neuron culture: Male.
The mark [5] stands for this setting: 1 µM, sex of neuron culture: Female.
Where [6] appears, read: 1 µM, sex of neuron culture: Male.
[7] abbreviates: 10 µM, sex of neuron culture: Female.
Setting [8] is: 10 µM, sex of neuron culture: Male.

Single values of this set are uncertain.

Turning to `COc1cc2c3c(n(CCCn4ccnc4)c(=O)c2cc1OC)-c1cc2c(cc1C3=O)OCO2`, the cell health score is, setting by setting: under setting [1], 0.00324; under setting [2], 0.00204; under setting [3], 0.002; under setting [4], 0.00166; under setting [5], 0.00156; under setting [6], 0.00159. Besides, the cell health score is, setting by setting: under setting [7], 0.00234; under setting [8], 0.0018.
Consider `COc1ccc(-c2ccc(=N)n(CCCC(=O)O)n2)cc1`, for which the cell health score is, setting by setting: under setting [1], 0.00079; under setting [2], 0.000835; under setting [3], 0.000786; under setting [4], 0.000953; under setting [5], 0.00068; under setting [6], 0.000622. For the same compound, the cell health score runs as follows: under setting [7], 0.000937; under setting [8], 0.000496.
With `Cc1cnc(-c2cnc(NCCNc3ccc(C#N)cn3)nc2-c2ccc(Cl)cc2Cl)[nH]1`, the cell health score by setting is: under setting [1], 0.000507; under setting [2], 0.0018; under setting [3], 0.0011; under setting [4], 0.000974; under setting [5], 0.00108; under setting [6], 0.000833. The cell health score runs as follows: under setting [7], 0.00106; under setting [8], 0.00109.
In turn, `Cc1sc2c(c1C)C(c1ccc(Cl)cc1)=N[C@@H](CC(=O)OC(C)(C)C)c1nnc(C)n1-2` (racemic) [(+/-)JQ1] gave a cell health score under setting [1] of 0.00064; a cell health score under setting [2] of 0.00098; a cell health score under setting [3] of 0.000937; a cell health score under setting [4] of 0.00104; a cell health score under setting [5] of 0.00117; a cell health score under setting [6] of 0.00153. The cell health score is 0.00167 under setting [7] and 0.00144 under setting [8].
As to `Cc1c(COC(=O)[C@@H]2[C@H](/C=C(\Cl)C(F)(F)F)C2(C)C)cccc1-c1ccccc1` (racemic) [Bifenthrin], the cell health score by setting is: under setting [1], 0.000673; under setting [2], 0.000721; under setting [3], 0.000863; under setting [4], 0.000702; under setting [5], 0.000833; under setting [6], 0.00062. Further, the cell health score by setting is: under setting [7], 0.000653; under setting [8], 0.000559.
`NC(CCCP(=O)(O)O)C(=O)O` (racemic) [DL-AP5]: the cell health score amounted to 0.00041 under setting [1]; 0.000657 under setting [2]; 0.000661 under setting [3]; 0.000622 under setting [4]; 0.000654 under setting [5]; 0.00102 under setting [6]. In addition, the cell health score runs as follows: under setting [7], 0.000958; under setting [8], 0.000765.
As for `C[C@@]1(c2ccc(Oc3ccccc3)cc2)OC(=O)N(Nc2ccccc2)C1=O` (racemic) [Famoxadone], the cell health score is 0.000568 under setting [1]; 0.000962 under setting [2]; 0.000836 under setting [3]; 0.00103 under setting [4]; 0.00109 under setting [5]; 0.000522 under setting [6]. Besides, the cell health score amounted to 0.00229 under setting [7] and 0.000954 under setting [8].
With `CC(C)(C)[C@H](O)[C@H](Cc1ccc(Cl)cc1)n1cncn1` (racemic) [Paclobutrazol], the cell health score under setting [1] was found to be 0.00045; the cell health score under setting [2] stood at 0.00165; the cell health score under setting [3] stood at 0.000858; the cell health score under setting [4] was 0.000992; the cell health score under setting [5] came to 0.000676; the cell health score under setting [6] stood at 0.000862. Further, the cell health score worked out at 0.00122 under setting [7] and 0.00053 under setting [8].
On to `Cc1c(F)c(F)c(COC(=O)[C@@H]2[C@H](/C=C(\Cl)C(F)(F)F)C2(C)C)c(F)c1F` (racemic) [Tefluthrin], for which the cell health score is 0.000505 under setting [1]; 0.000789 under setting [2]; 0.00145 under setting [3]; 0.00137 under setting [4]; 0.000751 under setting [5]; 0.000493 under setting [6]. The compound further had a cell health score under setting [7] of 0.00148 and a cell health score under setting [8] of 0.000565.
For `Oc1ccc(C(c2ccc(O)cc2)C(Cl)(Cl)Cl)cc1` [2,2-Bis(4-hydroxyphenyl)-1,1,1-trichloroethane], the cell health score is, setting by setting: under setting [1], 0.000445; under setting [2], 0.00124; under setting [3], 0.00135; under setting [4], 0.000708; under setting [5], 0.000474; under setting [6], 0.000581. Besides, the cell health score runs as follows: under setting [7], 0.00195; under setting [8], 0.000388.
On to `O=C(O)COc1ccc(Cl)cc1Cl` [2,4-Dichlorophenoxyacetic acid], for which the cell health score by setting is: under setting [1], 0.000508; under setting [2], 0.000827; under setting [3], 0.000729; under setting [4], 0.000963; under setting [5], 0.000666; under setting [6], 0.000427. In addition, the cell health score under setting [7] amounted to 0.00116 and the cell health score under setting [8] came to 0.00054.
In the case of `N#CSCSc1nc2ccccc2s1` [2-(Thiocyanomethylthio)benzothiazole], the cell health score runs as follows: under setting [1], 0.000446; under setting [2], 0.000746; under setting [3], 0.000788; under setting [4], 0.000732; under setting [5], 0.000804; under setting [6], 0.000473. Further, the cell health score is, setting by setting: under setting [7], 0.000928; under setting [8], 0.00032.
As for `COCCO` [2-Methoxyethanol], the cell health score is, setting by setting: under setting [1], 0.000447; under setting [2], 0.000903; under setting [3], 0.00106; under setting [4], 0.0011; under setting [5], 0.00123; under setting [6], 0.000734. The same compound yielded a cell health score under setting [7] of 0.00117 and a cell health score under setting [8] of 0.000848.
Turning to `OCCOc1ccccc1` [2-Phenoxyethanol], the cell health score is, setting by setting: under setting [1], 0.000983; under setting [2], 0.000793; under setting [3], 0.000736; under setting [4], 0.000783; under setting [5], 0.00115; under setting [6], 0.000476. The cell health score by setting is: under setting [7], 0.00121; under setting [8], 0.000433.
The compound `Oc1ccccc1-c1ccccc1` [2-Phenylphenol] showed a cell health score under setting [1] of 0.000403; a cell health score under setting [2] of 0.00115; a cell health score under setting [3] of 0.000641; a cell health score under setting [4] of 0.000947; a cell health score under setting [5] of 0.001; a cell health score under setting [6] of 0.000675. Moreover, the cell health score by setting is: under setting [7], 0.000998; under setting [8], 0.000575.
Turning to `CCCCNC(=O)OCC#CI` [3-Iodo-2-propynyl-N-butylcarbamate], the cell health score reads like this: under setting [1], 0.00056; under setting [2], 0.00075; under setting [3], 0.000531; under setting [4], 0.00128; under setting [5], 0.000971; under setting [6], 0.000892. Further, the cell health score came out at 0.00162 under setting [7] and 0.000472 under setting [8].
For `Nc1ncn([C@@H]2O[C@H](CO)[C@@H](O)[C@H]2O)c(=O)n1` [5-azacytidine], the cell health score was 0.000594 under setting [1]; 0.000761 under setting [2]; 0.00115 under setting [3]; 0.000779 under setting [4]; 0.000646 under setting [5]; 0.00088 under setting [6]. Further, the cell health score under setting [7] came to 0.000819 and the cell health score under setting [8] amounted to 0.00194.
For `C[C@]12CC[C@@H]3c4ccc(O)cc4CC[C@H]3[C@@H]1CC[C@@H]2O` [17-beta-estradiol], the cell health score by setting is: under setting [1], 0.000793; under setting [2], 0.000616; under setting [3], 0.00132; under setting [4], 0.00106; under setting [5], 0.000776; under setting [6], 0.000936. Moreover, the cell health score amounted to 0.00107 under setting [7] and 0.000422 under setting [8].
